Reference: US8975384B2, “Tag peptide and use thereof” (Osaka University, priority 2008, dated 2015)

Each substance was assayed on P20.1 antibody-Sepharose (assay: Pull-down efficiency with P20.1 antibody-immobilized beads). Conditions: supernatant after 20 μL P20.1 antibody-Sepharose per 1 mL, 4° C., 1 hour.
Assay type: binding, mouse
Protocol: Three different hGH-γC-P4 fusion proteins, which have P4×1, P4×3 or P4×5, were separately expressed in HEK293T cells. The fusion protein in the separate cell culture supernatant was quantified by the sandwich ELISA (which adopts a system of hGH antibody-mediated capture+anti-BAS serum-mediated detection, and is not dependent on the responsiveness to the P20.1 antibody) (before pull-down). Aside from this, to 1 mL of the cell culture supernatant, 20 μL of the P20.1 antibody-Sepharose (bead form) was added, and then the mixture was allowed to react at 4° C. for 1 hour. After the beads were precipitated by centrifugation, the fusion protein in the supernatant was quantified by the sandwich ELISA (which adopts a system of hGH antibody-mediated capture+anti-BAS serum-mediated detection, and is not dependent on the responsiveness to the P20.1 antibody) (after pull-down). The fusion protein purified with Ni-NTA agarose was used as a standard, and based on the standard curve, the fusion protein concentrations before and after pull-down by the P20.1 antibody were determined. As is clear from Table 4, 3 to 5 repeats of the P4 sequence achieves the binding efficiency of about 80%.

| Substance | Fusion protein After pull-down [µg/mL] |
| --- | --- |
| P4 × 3: hGH/fibrinogen γC fusion protein tagged with 3 repeats of the P4 sequence GYPGQV | 0.22 |
| P4 × 5: hGH/fibrinogen γC fusion protein tagged with 5 repeats of the P4 sequence GYPGQV | 0.17 |
| P4: hGH/fibrinogen γC fusion protein tagged with 1 repeat of the P4 sequence GYPGQV | 0.6 |
